No constants are given. Whether binding was seen depends on the method and setting. Binding seen in cells or lysates may run through a third protein. Some results given as binding are weak or reduced against the parent protein; the word gives no strength.
Tests used:
Flag-HA-tagged SMAD3 = Flag-HA-tagged SMAD3 (UniProt P84022); test: co-IP; HEK293T cells co-transfected with indicated plasmids, lysed 48 h later in BC150 buffer (50 mM Tris-HCl pH 7.9, 150 mM NaCl, 0.5 mM EDTA) with 0.2% Triton X-100; cleared lysates immunoprecipitated with anti-HA or anti-Flag agarose beads; immunoblotting
[1] = target: Flag-tagged USP7 wildtype (WT) (UniProt Q93009); test: as above

The chains behind the UniProt entries cited, without tags or fusion partners.
UniProt P84022: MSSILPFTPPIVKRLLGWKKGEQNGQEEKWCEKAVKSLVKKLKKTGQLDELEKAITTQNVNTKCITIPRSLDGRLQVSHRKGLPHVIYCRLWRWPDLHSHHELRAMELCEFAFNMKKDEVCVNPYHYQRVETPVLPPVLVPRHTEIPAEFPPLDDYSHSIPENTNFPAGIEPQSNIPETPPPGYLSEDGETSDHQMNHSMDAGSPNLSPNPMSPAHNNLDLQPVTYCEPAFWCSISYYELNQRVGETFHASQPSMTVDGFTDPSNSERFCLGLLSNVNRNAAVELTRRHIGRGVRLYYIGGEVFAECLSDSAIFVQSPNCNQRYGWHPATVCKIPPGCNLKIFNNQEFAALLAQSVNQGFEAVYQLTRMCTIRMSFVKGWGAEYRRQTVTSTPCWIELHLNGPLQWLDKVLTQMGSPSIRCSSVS
UniProt Q93009: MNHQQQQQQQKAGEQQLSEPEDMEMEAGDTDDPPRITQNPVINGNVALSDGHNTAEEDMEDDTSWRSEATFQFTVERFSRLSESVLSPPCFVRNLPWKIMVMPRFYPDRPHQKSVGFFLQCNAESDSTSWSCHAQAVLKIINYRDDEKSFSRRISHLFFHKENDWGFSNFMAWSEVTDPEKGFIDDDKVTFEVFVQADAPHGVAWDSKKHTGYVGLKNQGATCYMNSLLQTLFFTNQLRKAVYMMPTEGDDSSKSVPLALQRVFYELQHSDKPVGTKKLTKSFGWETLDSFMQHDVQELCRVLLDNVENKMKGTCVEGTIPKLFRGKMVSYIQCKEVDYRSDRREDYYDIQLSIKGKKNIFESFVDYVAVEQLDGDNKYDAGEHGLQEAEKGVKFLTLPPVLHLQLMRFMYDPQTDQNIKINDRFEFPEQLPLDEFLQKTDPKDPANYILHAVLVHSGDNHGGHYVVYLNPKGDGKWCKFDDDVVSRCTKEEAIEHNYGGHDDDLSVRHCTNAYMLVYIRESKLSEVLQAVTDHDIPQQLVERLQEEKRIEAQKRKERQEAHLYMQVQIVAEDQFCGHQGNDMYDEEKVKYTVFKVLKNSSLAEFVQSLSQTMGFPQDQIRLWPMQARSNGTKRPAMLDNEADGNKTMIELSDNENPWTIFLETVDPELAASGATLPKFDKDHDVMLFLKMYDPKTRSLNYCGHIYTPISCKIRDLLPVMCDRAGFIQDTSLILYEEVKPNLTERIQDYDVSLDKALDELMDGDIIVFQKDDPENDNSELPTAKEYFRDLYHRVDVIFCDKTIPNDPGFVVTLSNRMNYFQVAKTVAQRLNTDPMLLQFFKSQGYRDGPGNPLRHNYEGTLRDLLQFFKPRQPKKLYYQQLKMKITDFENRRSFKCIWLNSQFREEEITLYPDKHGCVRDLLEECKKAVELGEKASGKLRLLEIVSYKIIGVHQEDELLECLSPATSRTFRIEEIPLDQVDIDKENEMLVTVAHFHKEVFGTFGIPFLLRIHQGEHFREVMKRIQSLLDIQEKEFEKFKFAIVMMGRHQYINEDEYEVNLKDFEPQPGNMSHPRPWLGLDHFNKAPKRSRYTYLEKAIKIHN

Flag-tagged USP7 wildtype (WT) (from UniProt Q93009 1-1102) (enzyme)
binding (Flag-HA-tagged SMAD3): binds

Myc-tagged SMAD3 (from UniProt P84022 1-425)
binding [1]: binds

— PMC8476631
